From patent US20260201069A1, “ANTIBODIES THAT SPECIFICALLY BIND MODIFIED OLIGONUCLEOTIDES” (Hoffmann-La Roche Inc., priority 2024, published 2026)

B1: mAb 5393: anti-LNA antibody produced by clone 1.9.21 in the bivalent standard Y-shaped IgG format (antibody, V domains shown)
VH: QVQLQQSGAELVRPGTSVKVSCKASGYAFTNYLIEWIKQRPGQGLEWIGVINPGSGGTNYNEKFRVKATLTADKSSSTAYMQLSSLTSDDSAVYFCARGGGYYWGQGTLVTVSA
VL: DIVMTQAAPSVPVTPGESVSISCRSSKSLLHSNGNTYLFWFLQRPGQSPQVLIYRMSNLASGVPDRFSGSGSGTAFTLRISRVEAEDVGVYYCMQHLEYPYTFGSGTRLEIK
B2: mAb 5392: anti-LNA antibody produced by clone 1.7.15 in the bivalent standard Y-shaped IgG format (antibody, V domains shown)
VH: QVQLKQSGPSFVQPSQSLSITCTVSGFSLTTYGVHWVRQSPGKGLEWLGVIWRSGGTDYNAAFMSRLSITKDNSKSQVFFKMNSLQTDDTAIYYCTNLYYWGQGTTLTVSS
VL: DIVMTQATFSNPVTLGTSVSISCRSSKSLLRSNGITYLYWYLQKPGQSPQLLIYQMSNLASGVPDRFSSSGSGTDFTLRISRVEAEDVGVYYCGQNLELPYTFGSGTKVEIK

Legend:
ASO 297 = assay: SPR (BIAcore) binding kinetics and affinity; settings: analyte ASO 297; bivalent IgG format
Description: (§1) In more detail, LNA binding of the antibodies according to the current invention was characterized by surface plasmon resonance (SPR) using a BIAcore instrument with a HEPES-based running and dilution buffer at 25° C. About 100-200 resonance units (RU) of an anti-LNA antibody with an Fc-region of the human IgG1 subclass and the mutations P329G, L234A and L235A (according to Kabat EU index; human IgG Fc-PGLALA) or an anti-LNA Fab fragment with human CL and CH1 (kappa, IgG1 isotype), respectively, was captured on the surface of a Series S Sensor Chip CM3 derivatized by standard amine coupling with either a mouse anti-human IgG Fc-PGLALA antibody or a goat anti-human F(ab′2) antibody with final total surface densities of approximately 5000 RU. Different LNA-modified ASOs were passed over the derivatized SPR chip surface by injecting the respective solutions in a 1:3 dilution series up to a final concentration of 1000 nM. Association was monitored for 3 min and dissociation for 5 min at a flow rate of 30 μl/min each. Bulk refractive index differences were corrected by subtracting blank injections and by subtracting the response obtained from the reference flow cell without captured antibody. Curve fitting was performed using the 1:1 Langmuir binding model within the BIAcore evaluation software.
(§2) To assess the binding specificities and affinities of the LNA-binding antibodies according to the current invention, surface plasmon resonance was used as described, e.g., in WO 2020/141117 and WO 2022/175217.
(§3) To assess the specificities and affinities of LNA-binding antibodies, surface plasmon resonance was done as described in WO 2020/141117 and WO 2022/175217. ASO binding was investigated by surface plasmon resonance (SPR) using a BIAcore T200 instrument (Cytiva). As a running and dilution buffer, HEPES buffered saline (HBS) containing 0.05% PS20 was used, the temperature was set to 25° C. For capturing anti-LNA Fabs or complete anti-LNA antibodies to a Series S Sensor Chip CM3 (Cytiva), either a mouse anti-human IgG antibody (Roche Diagnostics GmbH) or a goat anti-human F(ab′2) antibody (Jackson ImmunoResearch) was immobilized using standard amine coupling chemistry with final total surface densities of approximately 5000 resonance units (RU). The anti-LNA antibodies were captured to the surface by an injection for 30 sec., leading to response levels of approx. 100-200 RU. Different ASO molecules were injected in a 1:3 dilution series up to 1000 nM. Association was monitored for 3 min. and dissociation for 5 min. at a flow rate of 30 μl/min each. Subsequently, the surface was regenerated by injecting 10 mM NaOH (anti-human IgG antibody surface) or 10 mM Glycine pH 1.7 (anti-human IgG F(ab′2) antibody surface) for 60 sec. […]

ASO 420 = assay: SPR (BIAcore) binding kinetics and affinity; settings: analyte ASO 420; bivalent IgG format
Description: as §1, §2, §3

| Molecule | molar ratio (ASO 297) | molar ratio (ASO 420) |
| --- | --- | --- |
| B1 | 0.4 | 1.1 |
| B2 | 0.4 | 0.2 |
